From patent publication US20210246191A1 (BIONTECH, published 2021)

Molecular target: lysozyme
Experiment: ELISA, 200 nM Trx-miniprotein on coated protein (1 µg/well), duplicates

binding: no binding (tested: 200 nM)
Binder: PMCTQRKNRIRLCRRDSDCTGACICRGNGYCG (designed binder, not shown: large carriers; small tags and cut ends) [Trx-MC-FN-010 (thioredoxin fusion of cystine-knot miniprotein MC-FN-010)]

These are yes or no findings as the source states them, for the method shown. Where a sequence is shown, tags or fusion partners need not be part of it.
